Here are results for seven molecules from patent publication US20150239983A1 (University of California, published 2015).

Experiment [1] addresses T1, purified PSCA-Fc (human, UniProt O43653 12-83, limits assumed).
T1 construct: not shown: Fc part
T1 sequence: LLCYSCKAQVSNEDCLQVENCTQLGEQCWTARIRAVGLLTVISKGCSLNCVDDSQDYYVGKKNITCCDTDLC
The experiment can be described thus: refers back to the affinity ranking of Example 4 (competition ELISA and flow cytometry). In general terms: ELISA stands for enzyme-linked immunosorbent assay.

Experiment [2] deals with T2, PSCA expressed at the cell surface (EBV transformed B-cell lymphoma cell line stably transfected with PSCA) (human) (UniProt O43653).
T2 sequence: T1 sequence
The experiment in a line: flow cytometry on a B-cell lymphoma line stably transfected with PSCA, detected with anti-human Fc PE. On the technique in general: In flow cytometry, cells or beads pass a laser one at a time.

Experiment [3] deals with T1, purified PSCA-Fc. The experiment in a line: competition ELISA, wells coated with purified PSCA-Fc.
Experiment [4] addresses PSCA human Gamma 1 fusion protein (human) [IgG part: P01857]. The experiment can be described thus: flow cytometry of yeast-displayed scFv clones after the fourth round of sorting with PSCA human Gamma 1 fusion protein.

Substitutions are numbered along the chain they refer to. No constants are given. Whether binding was seen depends on the method and setting. Some binding calls cover weakened binding; strength is not graded here. For part of these data: Where a sequence is shown, tags or fusion partners need not be part of it.

B1: A2 anti-PSCA minibody (other)
chain: DIQLTQSPSSLSASVGDRVTITCSASSSVRFIHWYQQKPGKAPKRLIYDTSKLASGVPSRFSGSGSGTDFTLTISSLQPEDFATYYCQQWGSSPFTFGQGTKVEIKGSTSGGGSGGGSGGGGSEVQLVESGGGLVQPGGSLRLSCAASGFNIKDYYIHWVRQAPGKGLEWVAWIDPEYGDSEFVPKFQGRATMSADTSKNTAYLQMNSLRAEDTAVYYCKTGGFWGRGTLVTVSSEPKSCDKTHTCPPCGGGSSGGGSGGQPREPQVYTLPPSRDELTKNQVSLTCLVKGFYPSDIAVEWESNGQPENNYKTTPPVLDSDGSFFLYSKLTVDKSRWQQGNVFSCSVMHEALHNHYTQKSLSLSPGK
notes: also called A2 minibody; variant A2
As for B1, the binding result in experiment [1] and in experiment [2] was “binds” each time.

B2: A11 anti-PSCA minibody (other)
chain: DIQLTQSPSTLSASMGDRVTITCSASSSVRFIHWYQQKPGKAPKRLIYDTSKLASGVPSRFSGSGSGTDFTLTISSLQPEDFATYYCQQWGSSPFTFGQGTKVEIKGSTSGGGSGGGSGGGGSSEVQLVEYGGGLVQPGGSLRLSCAASGFNIKDYYIHWVRQAPGKGLEWVAWIDPENGDTEFVPKFQGRATMSADTSKNTAYLQMNSLRAEDTAVYYCKTGGFWGQGTLVTVSSEPKSCDKTHTCPPCGGGSSGGGSGGQPREPQVYTLPPSRDELTKNQVSLTCLVKGFYPSDIAVEWESNGQPENNYKTTPPVLDSDGSFFLYSKLTVDKSRWQQGNVFSCSVMHEALHNHYTQKSLSLSPGK
notes: also called A11 minibody; variant A11
For the molecule B2, the binding entry in experiment [2] is listed as “binds”.

B3: parental 2B3 minibody (protein)
chain: B2 chain with T10S, M15V, G91S, Y131S, M194I
For B3, the binding entry in experiment [3] and in experiment [2] was “binds” each time.

B4: C5 anti-PSCA minibody (other)
chain: B2 chain with T5I, T10S, M15V, G91S, Y131S, M194I, A203V, E213K
notes: also called C5 minibody; variant C5
For B4, the binding entry in experiment [2] was “binds”.

B5: A2 ScFv (2B3 ScFv variant) (scFv)
scFv: DIQLTQSPSSLSASVGDRVTITCSASSSVRFIHWYQQKPGKAPKRLIYDTSKLASGVPSRFSGSGSGTDFTLTISSLQPEDFATYYCQQWGSSPFTFGQGTKVEIKGSTSGGGSGGGSGGGGSEVQLVESGGGLVQPGGSLRLSCAASGFNIKDYYIHWVRQAPGKGLEWVAWIDPEYGDSEFVPKFQGRATMSADTSKNTAYLQMNSLRAEDTAVYYCKTGGFWGRGTLVTVSSAAG
Turning to B5, the binding result in experiment [4] is “binds”.

B6: A11 ScFv (2B3 ScFv variant) (scFv)
scFv: DIQLTQSPSTLSASMGDRVTITCSASSSVRFIHWYQQKPGKAPKRLIYDTSKLASGVPSRFSGSGSGTDFTLTISSLQPEDFATYYCQQWGSSPFTFGQGTKVEIKGSTSGGGSGGGSGGGGSSEVQLVEYGGGLVQPGGSLRLSCAASGFNIKDYYIHWVRQAPGKGLEWVAWIDPENGDTEFVPKFQGRATMSADTSKNTAYLQMNSLRAEDTAVYYCKTGGFWGQGTLVTVSSAAG
Turning to B6, the binding result in experiment [4] was “binds”.

B7: C5 ScFv (2B3 ScFv variant) (scFv)
scFv: B6 scFv with T5I, T10S, M15V, G91S, Y131S, M194I, A203V, E213K
With B7, in experiment [4], the binding entry is “binds”.
